Results: article PMC7862700
Only a part is listed here, and it is no random draw. For part of these data: At the low end of the ranking, values are background and their order means little. The list shows a part of the results. For part of these data: Construct or isoform of the protein are uncertain.

Chains of the proteins cited; added tags and fusions are not shown. Lines headed by an entry give the natural chain unless they say otherwise; changes in a name come on top.
UniProt P32519: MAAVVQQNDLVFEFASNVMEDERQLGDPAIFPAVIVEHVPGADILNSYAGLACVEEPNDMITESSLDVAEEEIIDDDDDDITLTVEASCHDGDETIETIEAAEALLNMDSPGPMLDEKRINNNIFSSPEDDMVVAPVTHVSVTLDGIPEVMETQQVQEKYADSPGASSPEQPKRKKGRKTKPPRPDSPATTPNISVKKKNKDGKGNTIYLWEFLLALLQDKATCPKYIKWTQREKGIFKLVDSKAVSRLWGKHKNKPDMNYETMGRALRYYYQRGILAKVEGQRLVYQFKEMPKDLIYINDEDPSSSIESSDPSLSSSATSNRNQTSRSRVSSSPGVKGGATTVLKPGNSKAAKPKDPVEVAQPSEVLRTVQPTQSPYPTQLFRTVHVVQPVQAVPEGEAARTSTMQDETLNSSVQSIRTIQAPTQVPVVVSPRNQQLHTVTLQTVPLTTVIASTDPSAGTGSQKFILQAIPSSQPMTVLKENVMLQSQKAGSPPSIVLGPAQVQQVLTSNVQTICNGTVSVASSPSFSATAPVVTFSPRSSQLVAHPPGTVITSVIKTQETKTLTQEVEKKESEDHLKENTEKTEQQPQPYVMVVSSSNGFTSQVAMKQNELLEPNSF
UniProt P50549: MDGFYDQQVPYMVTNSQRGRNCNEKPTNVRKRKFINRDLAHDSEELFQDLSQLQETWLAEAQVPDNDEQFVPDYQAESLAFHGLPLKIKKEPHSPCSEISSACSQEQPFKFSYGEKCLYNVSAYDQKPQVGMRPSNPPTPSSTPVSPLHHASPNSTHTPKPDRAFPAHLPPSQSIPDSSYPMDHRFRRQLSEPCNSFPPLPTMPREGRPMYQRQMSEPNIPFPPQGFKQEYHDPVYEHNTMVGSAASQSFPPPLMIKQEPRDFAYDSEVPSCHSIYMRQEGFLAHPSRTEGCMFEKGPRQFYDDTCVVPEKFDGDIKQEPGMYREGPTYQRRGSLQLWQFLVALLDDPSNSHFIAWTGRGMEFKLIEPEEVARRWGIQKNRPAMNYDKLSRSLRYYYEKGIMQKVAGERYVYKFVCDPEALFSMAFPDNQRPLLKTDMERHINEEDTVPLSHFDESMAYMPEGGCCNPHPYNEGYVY

How the values were obtained:
Test in all cases: DAPPL (digital affinity profiling via proximity ligation, sequencing)
Conditions in all cases: 10 mM Tris-HCl pH 7.5, 50 mM NaCl, 1 mM DTT, 4% glycerol, room temperature, 30 min; GST-TFs on glutathione beads, 16-mer random dsDNA library, 0.1% …; high values mean tight binding; double strand, one strand shown; scale: fold enrichment (6-mer frequency, TF over GST control)
[1] = molecular target: T1, ERG (UniProt P11308)
T1 sequence: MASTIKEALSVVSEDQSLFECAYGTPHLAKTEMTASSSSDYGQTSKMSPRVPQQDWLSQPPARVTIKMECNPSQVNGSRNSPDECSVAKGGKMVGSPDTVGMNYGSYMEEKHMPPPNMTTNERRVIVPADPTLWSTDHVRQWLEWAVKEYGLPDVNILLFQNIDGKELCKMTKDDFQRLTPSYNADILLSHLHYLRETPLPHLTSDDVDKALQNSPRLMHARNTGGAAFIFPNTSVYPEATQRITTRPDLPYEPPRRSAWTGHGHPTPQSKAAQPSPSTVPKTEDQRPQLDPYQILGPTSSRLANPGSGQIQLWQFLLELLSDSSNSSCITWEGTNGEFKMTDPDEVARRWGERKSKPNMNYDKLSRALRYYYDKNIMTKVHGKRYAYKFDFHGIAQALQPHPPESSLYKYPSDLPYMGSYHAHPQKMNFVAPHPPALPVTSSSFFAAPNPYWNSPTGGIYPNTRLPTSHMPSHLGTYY

[2] = molecular target: ELF1 (UniProt P32519)
[3] = molecular target: T2, ELK4 (UniProt P28324-2)
T2 sequence: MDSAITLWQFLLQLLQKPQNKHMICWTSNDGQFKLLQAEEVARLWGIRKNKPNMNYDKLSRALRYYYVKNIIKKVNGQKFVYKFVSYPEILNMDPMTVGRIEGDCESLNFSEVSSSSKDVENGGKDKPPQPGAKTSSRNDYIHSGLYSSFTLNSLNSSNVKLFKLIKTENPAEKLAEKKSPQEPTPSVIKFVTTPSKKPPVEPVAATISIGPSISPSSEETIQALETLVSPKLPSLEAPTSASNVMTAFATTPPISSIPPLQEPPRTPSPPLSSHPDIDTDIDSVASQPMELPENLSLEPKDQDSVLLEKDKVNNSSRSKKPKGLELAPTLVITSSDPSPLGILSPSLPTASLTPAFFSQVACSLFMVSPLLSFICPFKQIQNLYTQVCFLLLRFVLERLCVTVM

[4] = molecular target: T3, ETV4 (UniProt P43268)
T3 sequence: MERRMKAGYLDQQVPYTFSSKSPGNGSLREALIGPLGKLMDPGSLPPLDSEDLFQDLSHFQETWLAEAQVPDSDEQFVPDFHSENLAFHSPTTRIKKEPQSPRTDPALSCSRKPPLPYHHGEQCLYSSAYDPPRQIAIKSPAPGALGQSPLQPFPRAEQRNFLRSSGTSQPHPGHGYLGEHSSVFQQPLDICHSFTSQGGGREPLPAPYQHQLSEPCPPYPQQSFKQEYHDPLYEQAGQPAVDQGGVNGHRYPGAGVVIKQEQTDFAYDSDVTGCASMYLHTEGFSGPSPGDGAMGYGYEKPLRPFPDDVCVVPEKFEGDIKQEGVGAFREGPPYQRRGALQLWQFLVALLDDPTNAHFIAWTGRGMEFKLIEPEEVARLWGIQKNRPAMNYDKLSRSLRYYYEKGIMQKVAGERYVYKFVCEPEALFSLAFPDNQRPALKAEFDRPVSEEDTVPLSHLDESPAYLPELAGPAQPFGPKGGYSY

[5] = molecular target: ETV1 (UniProt P50549)
[6] = molecular target: T4, ERF (UniProt P50548)
T4 sequence: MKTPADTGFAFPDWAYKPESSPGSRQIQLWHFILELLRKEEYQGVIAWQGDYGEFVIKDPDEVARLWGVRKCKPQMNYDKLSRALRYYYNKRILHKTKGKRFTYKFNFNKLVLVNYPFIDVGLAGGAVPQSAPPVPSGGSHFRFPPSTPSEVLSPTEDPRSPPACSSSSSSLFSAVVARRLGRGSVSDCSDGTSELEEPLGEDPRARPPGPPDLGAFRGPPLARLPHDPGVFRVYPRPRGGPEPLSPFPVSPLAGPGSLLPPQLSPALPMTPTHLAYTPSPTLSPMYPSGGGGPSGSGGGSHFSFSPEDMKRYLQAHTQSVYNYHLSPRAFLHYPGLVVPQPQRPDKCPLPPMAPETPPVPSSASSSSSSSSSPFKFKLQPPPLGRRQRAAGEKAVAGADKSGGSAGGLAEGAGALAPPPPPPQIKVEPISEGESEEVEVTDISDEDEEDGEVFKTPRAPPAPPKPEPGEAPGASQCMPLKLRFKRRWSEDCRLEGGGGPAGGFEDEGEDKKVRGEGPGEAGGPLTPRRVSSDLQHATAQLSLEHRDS

| Sequence | binding signal [1] | binding signal [2] | binding signal [3] | binding signal [4] | binding signal [5] | binding signal [6] |
| --- | --- | --- | --- | --- | --- | --- |
| GAGTGA | 0.397 | 0.41 | 0.411 | 0.377 | 0.467 | 0.398 |
| TCGGAT | 0.542 | 0.518 | 0.541 | 0.512 | 0.507 | 0.539 |
| AGCCTG | 0.857 | 0.865 | 0.958 | 0.898 | 0.882 | 0.883 |
| CGGTCC | 0.956 | 0.935 | 1.08 | 0.969 | 0.927 | 0.971 |
| GGAGAG | 0.277 | 0.26 | 0.279 | 0.251 | 0.279 | 0.289 |
| AGCAGG | 0.955 | 0.868 | 0.93 | 0.898 | 0.938 | 0.854 |
| AGTGCG | 0.882 | 0.876 | 0.768 | 0.847 | 0.826 | 0.885 |
| CAGGCC | 0.782 | 0.744 | 0.725 | 0.751 | 0.745 | 0.683 |
| TGTGTC | 0.834 | 0.755 | 0.807 | 0.755 | 0.767 | 0.861 |
| GCAGTT | 0.813 | 0.797 | 0.815 | 0.868 | 0.786 | 0.844 |
| GAGGGT | 0.542 | 0.558 | 0.632 | 0.525 | 0.557 | 0.559 |
| TGAGGT | 0.604 | 0.645 | 0.722 | 0.701 | 0.663 | 0.621 |
| GCGCAG | 0.822 | 0.819 | 0.911 | 0.855 | 0.812 | 0.848 |
| CGTTAG | 0.858 | 0.849 | 0.854 | 0.843 | 0.743 | 0.786 |
| GACACG | 0.676 | 0.712 | 0.763 | 0.684 | 0.689 | 0.72 |
| AGGAGC | 0.438 | 0.407 | 0.35 | 0.38 | 0.372 | 0.429 |
| TACCAG | 0.903 | 0.891 | 0.82 | 0.824 | 0.892 | 0.765 |
| GGTTGA | 0.741 | 0.786 | 0.901 | 0.811 | 0.768 | 0.751 |
| GATGAG | 0.796 | 0.868 | 0.797 | 0.833 | 0.766 | 0.838 |
| CGTAAG | 0.764 | 0.745 | 0.793 | 0.733 | 0.789 | 0.749 |

| Sequence | binding signal [1] | binding signal [2] | binding signal [3] | binding signal [4] | binding signal [5] | binding signal [6] |
| --- | --- | --- | --- | --- | --- | --- |
| AAAGAG | 0.873 | 0.946 | 0.888 | 0.832 | 0.959 | 0.924 |
| GGGGTT | 0.78 | 0.856 | 0.905 | 0.87 | 0.912 | 0.85 |
| CCAGGT | 0.705 | 0.705 | 0.754 | 0.781 | 0.811 | 0.836 |
| AGATTG | 0.844 | 0.813 | 0.834 | 0.794 | 0.865 | 0.838 |
| GGAGCG | 0.385 | 0.406 | 0.355 | 0.343 | 0.391 | 0.406 |
| AGCAGT | 0.719 | 0.749 | 0.681 | 0.736 | 0.743 | 0.788 |
| GTGAAT | 0.842 | 0.806 | 0.852 | 0.761 | 0.845 | 0.766 |
| GAGTTT | 0.607 | 0.634 | 0.586 | 0.578 | 0.659 | 0.613 |
| GTGCAG | 0.706 | 0.71 | 0.745 | 0.704 | 0.752 | 0.685 |
| GCGTCG | 0.826 | 0.73 | 0.672 | 0.719 | 0.785 | 0.733 |
| TAGAGG | 0.825 | 0.852 | 0.819 | 0.81 | 0.787 | 0.925 |
| GCGTGT | 0.535 | 0.547 | 0.578 | 0.552 | 0.598 | 0.54 |
| AGGGGA | 0.592 | 0.553 | 0.53 | 0.591 | 0.653 | 0.639 |
| CGGAAT | 0.955 | 0.874 | 0.896 | 0.901 | 0.96 | 0.944 |
| AGTCAT | 0.627 | 0.547 | 0.591 | 0.603 | 0.595 | 0.624 |
| GTATAG | 0.864 | 0.911 | 0.909 | 0.877 | 0.903 | 0.997 |
| CGGGTA | 0.846 | 0.846 | 0.929 | 0.815 | 0.8 | 0.829 |
| AGAGGT | 0.768 | 0.9 | 0.919 | 0.816 | 0.855 | 0.945 |
| CGGGCA | 0.724 | 0.744 | 0.727 | 0.746 | 0.743 | 0.732 |
| GCTGGA | 0.792 | 0.845 | 0.741 | 0.841 | 0.812 | 0.825 |

| Sequence | binding signal [1] | binding signal [2] | binding signal [3] | binding signal [4] | binding signal [5] | binding signal [6] |
| --- | --- | --- | --- | --- | --- | --- |
| CGCATG | 0.602 | 0.646 | 0.679 | 0.678 | 0.618 | 0.653 |
| CTAGTC | 0.819 | 0.756 | 0.745 | 0.778 | 0.831 | 0.821 |
| GGGGCA | 0.719 | 0.695 | 0.768 | 0.635 | 0.688 | 0.782 |
| GTCGCG | 0.701 | 0.671 | 0.616 | 0.578 | 0.694 | 0.632 |
| GCCCGT | 0.636 | 0.654 | 0.606 | 0.643 | 0.622 | 0.602 |
| TGTCGT | 0.839 | 0.783 | 0.94 | 0.834 | 0.887 | 0.896 |
| CGAGTG | 0.792 | 0.883 | 0.948 | 0.772 | 0.889 | 0.843 |
| GAGGTA | 0.644 | 0.657 | 0.59 | 0.703 | 0.658 | 0.69 |
| GGAAAG | 0.984 | 0.904 | 0.834 | 0.897 | 0.935 | 0.913 |
| GGGTGA | 0.643 | 0.627 | 0.663 | 0.598 | 0.623 | 0.63 |
| CGGGGT | 0.637 | 0.675 | 0.544 | 0.652 | 0.656 | 0.619 |
| CGGCGG | 0.719 | 0.635 | 0.625 | 0.62 | 0.602 | 0.574 |
| ACAGAG | 0.711 | 0.78 | 0.76 | 0.739 | 0.761 | 0.804 |
| GGTACC | 0.759 | 0.851 | 0.884 | 0.8 | 0.84 | 0.795 |
| AGGCAG | 0.611 | 0.541 | 0.512 | 0.538 | 0.562 | 0.579 |
| CCAGAG | 0.68 | 0.695 | 0.79 | 0.706 | 0.682 | 0.627 |
| TCAGGG | 0.765 | 0.831 | 0.838 | 0.835 | 0.777 | 0.899 |
| GGACCA | 0.748 | 0.803 | 0.672 | 0.792 | 0.701 | 0.752 |
| AATCGG | 0.546 | 0.534 | 0.572 | 0.594 | 0.536 | 0.561 |
| AGACTA | 0.805 | 0.811 | 0.682 | 0.801 | 0.796 | 0.82 |

Laid out differently: results already given
GGTTGA
  binding signal [1]: 0.741; binding signal [2]: 0.786; binding signal [3]: 0.901; binding signal [4]: 0.811; binding signal [5]: 0.768; binding signal [6]: 0.751
GATGAG
  binding signal [1]: 0.796; binding signal [2]: 0.868; binding signal [3]: 0.797; binding signal [4]: 0.833; binding signal [5]: 0.766; binding signal [6]: 0.838
CGTAAG
  binding signal [1]: 0.764; binding signal [2]: 0.745; binding signal [3]: 0.793; binding signal [4]: 0.733; binding signal [5]: 0.789; binding signal [6]: 0.749
